The text below walks through data of PMC12282078.

Amino acid sequences for entries named in this document (tags omitted).
UniProt Q86WV6: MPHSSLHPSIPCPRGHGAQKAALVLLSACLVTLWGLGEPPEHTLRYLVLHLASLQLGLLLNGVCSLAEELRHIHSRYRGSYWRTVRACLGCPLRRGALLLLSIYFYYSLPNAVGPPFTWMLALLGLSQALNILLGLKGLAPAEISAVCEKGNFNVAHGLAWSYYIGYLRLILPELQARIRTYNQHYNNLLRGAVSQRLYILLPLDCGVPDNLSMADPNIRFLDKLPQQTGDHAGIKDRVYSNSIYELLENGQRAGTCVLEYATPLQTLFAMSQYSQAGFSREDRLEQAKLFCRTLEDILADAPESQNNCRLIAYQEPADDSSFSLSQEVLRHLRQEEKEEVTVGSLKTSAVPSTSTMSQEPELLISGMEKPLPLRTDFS

Results are given in words; binding and its absence hold for the method and conditions named. Binding seen in cells or lysates may run through a third protein. Some results given as binding are weak or reduced against the parent protein; the word gives no strength. For some assays here: Sequences can lack the tags named with a protein.

The target in experiment [1] is E1A from HAdV-C5 (full length, transfected) (human adenovirus C serotype 5 (HAdV-C5)) (UniProt P03255). In words: co-IP; HEK293T cells cotransfected for 36 h; whole-cell lysates immunoprecipitated with anti-E1A, anti-V5 or anti-Flag antibody or control IgG; western blot.
The target is the same in experiment [2]. In words: co-IP; HEK293T cells cotransfected with V5-tagged TRIM56 and E1A, with or without Flag-tagged STING; lysates immunoprecipitated with anti-V5 or anti-E1A antibody; 'competitive binding assays'.
For experiment [3] the target is unchanged. Kind of experiment: co-IP; HEK293T cells cotransfected for 36 h; whole-cell lysates immunoprecipitated with anti-E1A, anti-V5 or anti-Flag antibody or control IgG; western blot. The source holds these as a separate data set. In general terms: A western blot detects proteins with antibodies after separation by electrophoresis.
For a further experiment, the target named is Flag-tagged STING (UniProt Q86WV6). The experiment is described as above.
Experiment [4] deals with viral E1A (expressed during HAdV-C5 infection) (human adenovirus C serotype 5 (HAdV-C5)) (UniProt P03255). In words: co-IP; A549 cells infected with HAdV-C5 (MOI 20 or 10) for 30 h; whole-cell lysates immunoprecipitated with anti-E1A or anti-TRIM56 antibody or control IgG; also with lysates treated with RNase A.

On to “Flag-tagged STING (from UniProt Q86WV6 1-379)”, for which, in experiment [1], the binding entry was “binds”.

B1: V5-tagged TRIM56 (full length) (protein, UniProt Q9BRZ2 1-755)
chain: MVSHGSSPSLLEALSSDFLACKICLEQLRAPKTLPCLHTYCQDCLAQLADGGRVRCPECRETVPVPPEGVASFKTNFFVNGLLDLVKARACGDLRAGKPACALCPLVGGTSTGGPATARCLDCADDLCQACADGHRCTRQTHTHRVVDLVGYRAGWYDEEARERQAAQCPQHPGEALRFLCQPCSQLLCRECRLDPHLDHPCLPLAEAVRARRPGLEGLLAGVDNNLVELEAARRVEKEALARLREQAARVGTQVEEAAEGVLRALLAQKQEVLGQLRAHVEAAEEAARERLAELEGREQVARAAAAFARRVLSLGREAEILSLEGAIAQRLRQLQGCPWAPGPAPCLLPQLELHPGLLDKNCHLLRLSFEEQQPQKDGGKDGAGTQGGEESQSRREDEPKTERQGGVQPQAGDGAQTPKEEKAQTTREEGAQTLEEDRAQTPHEDGGPQPHRGGRPNKKKKFKGRLKSISREPSPALGPNLDGSGLLPRPIFYCSFPTRMPGDKRSPRITGLCPFGPREILVADEQNRALKRFSLNGDYKGTVPVPEGCSPCSVAALQSAVAFSASARLYLINPNGEVQWRRALSLSQASHAVAALPSGDRVAVSVAGHVEVYNMEGSLATRFIPGGKASRGLRALVFLTTSPQGHFVGSDWQQNSVVICDGLGQVVGEYKGPGLHGCQPGSVSVDKKGYIFLTLREVNKVVILDPKGSLLGDFLTAYHGLEKPRVTTMVDGRYLVVSLSNGTIHIFRVRSPDS
Take B1: the binding result (in experiment [2]; in experiment [3]; with Flag-tagged STING) was “binds” each time.

B2: endogenous TRIM56 (protein, UniProt Q9BRZ2 1-755)
chain: MVSHGSSPSLLEALSSDFLACKICLEQLRAPKTLPCLHTYCQDCLAQLADGGRVRCPECRETVPVPPEGVASFKTNFFVNGLLDLVKARACGDLRAGKPACALCPLVGGTSTGGPATARCLDCADDLCQACADGHRCTRQTHTHRVVDLVGYRAGWYDEEARERQAAQCPQHPGEALRFLCQPCSQLLCRECRLDPHLDHPCLPLAEAVRARRPGLEGLLAGVDNNLVELEAARRVEKEALARLREQAARVGTQVEEAAEGVLRALLAQKQEVLGQLRAHVEAAEEAARERLAELEGREQVARAAAAFARRVLSLGREAEILSLEGAIAQRLRQLQGCPWAPGPAPCLLPQLELHPGLLDKNCHLLRLSFEEQQPQKDGGKDGAGTQGGEESQSRREDEPKTERQGGVQPQAGDGAQTPKEEKAQTTREEGAQTLEEDRAQTPHEDGGPQPHRGGRPNKKKKFKGRLKSISREPSPALGPNLDGSGLLPRPIFYCSFPTRMPGDKRSPRITGLCPFGPREILVADEQNRALKRFSLNGDYKGTVPVPEGCSPCSVAALQSAVAFSASARLYLINPNGEVQWRRALSLSQASHAVAALPSGDRVAVSVAGHVEVYNMEGSLATRFIPGGKASRGLRALVFLTTSPQGHFVGSDWQQNSVVICDGLGQVVGEYKGPGLHGCQPGSVSVDKKGYIFLTLREVNKVVILDPKGSLLGDFLTAYHGLEKPRVTTMVDGRYLVVSLSNGTIHIFRVRSPDS
Turning to B2, in experiment [4], the binding result is “binds”.
